# Assay results: PMC8384837
# Positions count from the first letter of the chain named. The list shows a part of the results. For some of these results: At the low end of the ranking the order means little.
# Tests used:
# Conditions in all cases: yeast three-hybrid, YBZ-1, SC-Leu-His + 0.5 mM 3-AT, 4 days
# [1] = biological target: T1, PUM1 PUF domain R5-GSK C1007G + R1008S + Q1011K (UniProt Q14671)
# T1 sequence: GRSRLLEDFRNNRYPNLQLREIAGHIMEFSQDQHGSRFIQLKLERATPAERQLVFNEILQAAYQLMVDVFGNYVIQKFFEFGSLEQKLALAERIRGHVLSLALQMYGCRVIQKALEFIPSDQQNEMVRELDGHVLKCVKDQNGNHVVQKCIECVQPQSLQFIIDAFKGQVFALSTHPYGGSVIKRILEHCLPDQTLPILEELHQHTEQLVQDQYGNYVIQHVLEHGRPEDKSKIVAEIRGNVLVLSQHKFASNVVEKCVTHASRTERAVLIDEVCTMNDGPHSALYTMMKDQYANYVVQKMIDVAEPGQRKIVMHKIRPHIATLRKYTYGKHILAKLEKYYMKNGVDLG
# [2] = biological target: T2, PUM1 PUF domain R5-GSR C1007G + R1008S + Q1011R (Homo sapiens) (UniProt Q14671)
# T2 sequence: T1 sequence with K184R
# [3] = biological target: T3, PUM1 PUF domain R5-GTQ C1007G + R1008T (Homo sapiens) (UniProt Q14671)
# T3 sequence: T1 sequence with S181T, K184Q
# [4] = biological target: T4, PUM1 PUF domain R5-GTR C1007G + R1008T + Q1011R (Homo sapiens) (UniProt Q14671)
# T4 sequence: T1 sequence with S181T, K184R
# [5] = biological target: T5, PUM1 PUF domain R5-GVR C1007G + R1008V + Q1011R (Homo sapiens) (UniProt Q14671)
# T5 sequence: T1 sequence with S181V, K184R
# [6] = biological target: T6, PUM1 PUF domain R5-HQD C1007H + R1008Q + Q1011D (Homo sapiens) (UniProt Q14671)
# T6 sequence: T1 sequence with G180H, S181Q, K184D
# [7] = biological target: T7, PUM1 PUF domain R5-HRP C1007H + Q1011P (Homo sapiens) (UniProt Q14671)
# T7 sequence: T1 sequence with G180H, S181R, K184P
# [8] = biological target: T8, PUM1 PUF domain R5-HRR C1007H + Q1011R (Homo sapiens) (UniProt Q14671)
# T8 sequence: T1 sequence with G180H, S181R, K184R
# [9] = biological target: T9, PUM1 PUF domain R5-IRP C1007I + Q1011P (UniProt Q14671)
# T9 sequence: T1 sequence with G180I, S181R, K184P
# [10] = biological target: T10, PUM1 PUF domain R5-ISR C1007I + R1008S + Q1011R (Homo sapiens) (UniProt Q14671)
# T10 sequence: T1 sequence with G180I, K184R
# [11] = biological target: T11, PUM1 PUF domain R5-KAG C1007K + R1008A + Q1011G (UniProt Q14671)
# T11 sequence: T1 sequence with G180K, S181A, K184G
# [12] = biological target: T12, PUM1 PUF domain R5-KAL C1007K + R1008A + Q1011L (Homo sapiens) (UniProt Q14671)
# T12 sequence: T1 sequence with G180K, S181A, K184L
# [13] = biological target: T13, PUM1 PUF domain R5-KAV C1007K + R1008A + Q1011V (UniProt Q14671)
# T13 sequence: T1 sequence with G180K, S181A, K184V
# [14] = biological target: T14, PUM1 PUF domain R5-KGE C1007K + R1008G + Q1011E (UniProt Q14671)
# T14 sequence: T1 sequence with G180K, S181G, K184E
# [15] = biological target: T15, PUM1 PUF domain R5-KGG C1007K + R1008G + Q1011G (Homo sapiens) (UniProt Q14671)
# T15 sequence: T1 sequence with G180K, S181G, K184G
# [16] = biological target: T16, PUM1 PUF domain R5-KGK C1007K + R1008G + Q1011K (UniProt Q14671)
# T16 sequence: T1 sequence with G180K, S181G
# [17] = biological target: T17, PUM1 PUF domain R5-KGL C1007K + R1008G + Q1011L (Homo sapiens) (UniProt Q14671)
# T17 sequence: T1 sequence with G180K, S181G, K184L
# [18] = biological target: T18, PUM1 PUF domain R5-KGR C1007K + R1008G + Q1011R (Homo sapiens) (UniProt Q14671)
# T18 sequence: T1 sequence with G180K, S181G, K184R
# [19] = biological target: T19, PUM1 PUF domain R5-KGV C1007K + R1008G + Q1011V (Homo sapiens) (UniProt Q14671)
# T19 sequence: T1 sequence with G180K, S181G, K184V
# [20] = biological target: T20, PUM1 PUF domain R5-KGW C1007K + R1008G + Q1011W (Homo sapiens) (UniProt Q14671)
# T20 sequence: T1 sequence with G180K, S181G, K184W
# [21] = biological target: T21, PUM1 PUF domain R5-KLH C1007K + R1008L + Q1011H (UniProt Q14671)
# T21 sequence: T1 sequence with G180K, S181L, K184H
# [22] = biological target: T22, PUM1 PUF domain R5-KQG C1007K + R1008Q + Q1011G (UniProt Q14671)
# T22 sequence: T1 sequence with G180K, S181Q, K184G
# [23] = biological target: T23, PUM1 PUF domain R5-KQL C1007K + R1008Q + Q1011L (Homo sapiens) (UniProt Q14671)
# T23 sequence: T1 sequence with G180K, S181Q, K184L
# [24] = biological target: T24, PUM1 PUF domain R5-KQM C1007K + R1008Q + Q1011M (Homo sapiens) (UniProt Q14671)
# T24 sequence: T1 sequence with G180K, S181Q, K184M
# [25] = biological target: T25, PUM1 PUF domain R5-KQR C1007K + R1008Q + Q1011R (Homo sapiens) (UniProt Q14671)
# T25 sequence: T1 sequence with G180K, S181Q, K184R
# [26] = biological target: T26, PUM1 PUF domain R5-KQV C1007K + R1008Q + Q1011V (UniProt Q14671)
# T26 sequence: T1 sequence with G180K, S181Q, K184V
# [27] = biological target: T27, PUM1 PUF domain R5-KRA C1007K + Q1011A (Homo sapiens) (UniProt Q14671)
# T27 sequence: T1 sequence with G180K, S181R, K184A
# [28] = biological target: T28, PUM1 PUF domain R5-KRF C1007K + Q1011F (Homo sapiens) (UniProt Q14671)
# T28 sequence: T1 sequence with G180K, S181R, K184F
# [29] = biological target: T29, PUM1 PUF domain R5-KRR C1007K + Q1011R (Homo sapiens) (UniProt Q14671)
# T29 sequence: T1 sequence with G180K, S181R, K184R
# [30] = biological target: T30, PUM1 PUF domain R5-KRW C1007K + Q1011W (UniProt Q14671)
# T30 sequence: T1 sequence with G180K, S181R, K184W
# [31] = biological target: T31, PUM1 PUF domain R5-KSR C1007K + R1008S + Q1011R (UniProt Q14671)
# T31 sequence: T1 sequence with G180K, K184R
# [32] = biological target: T32, PUM1 PUF domain R5-KVE C1007K + R1008V + Q1011E (UniProt Q14671)
# T32 sequence: T1 sequence with G180K, S181V, K184E
# [33] = biological target: T33, PUM1 PUF domain R5-KYF C1007K + R1008Y + Q1011F (UniProt Q14671)
# T33 sequence: T1 sequence with G180K, S181Y, K184F
# [34] = biological target: T34, PUM1 PUF domain R5-LFR C1007L + R1008F + Q1011R (Homo sapiens) (UniProt Q14671)
# T34 sequence: T1 sequence with G180L, S181F, K184R
# [35] = biological target: T35, PUM1 PUF domain R5-LKL C1007L + R1008K + Q1011L (UniProt Q14671)
# T35 sequence: T1 sequence with G180L, S181K, K184L
# [36] = biological target: T36, PUM1 PUF domain R5-LLR C1007L + R1008L + Q1011R (UniProt Q14671)
# T36 sequence: T1 sequence with G180L, S181L, K184R
# [37] = biological target: T37, PUM1 PUF domain R5-LSR C1007L + R1008S + Q1011R (Homo sapiens) (UniProt Q14671)
# T37 sequence: T1 sequence with G180L, K184R
# [38] = biological target: T38, PUM1 PUF domain R5-LYA C1007L + R1008Y + Q1011A (UniProt Q14671)
# T38 sequence: T1 sequence with G180L, S181Y, K184A
# [39] = biological target: T39, PUM1 PUF domain R5-LYL C1007L + R1008Y + Q1011L (Homo sapiens) (UniProt Q14671)
# T39 sequence: T1 sequence with G180L, S181Y, K184L
# [40] = biological target: T40, PUM1 PUF domain R5-LYS C1007L + R1008Y + Q1011S (Homo sapiens) (UniProt Q14671)
# T40 sequence: T1 sequence with G180L, S181Y, K184S
# [41] = biological target: T41, PUM1 PUF domain R5-LYV C1007L + R1008Y + Q1011V (Homo sapiens) (UniProt Q14671)
# T41 sequence: T1 sequence with G180L, S181Y, K184V
# [42] = biological target: T42, PUM1 PUF domain R5-MGR C1007M + R1008G + Q1011R (Homo sapiens) (UniProt Q14671)
# T42 sequence: T1 sequence with G180M, S181G, K184R
# [43] = biological target: T43, PUM1 PUF domain R5-MSR C1007M + R1008S + Q1011R (Homo sapiens) (UniProt Q14671)
# T43 sequence: T1 sequence with G180M, K184R
sequence,measurement,setting,value
GGCUAGAACUAGUGGAUCCCCCGGCGCCCGGCGGCUCGAGCCCGGGUAAGUGUGAAUAGUCUGCAUGCCGCCGGGCGCCAUGCCUGCAGGUCGACUCUAGAAAACAUG,binding signal (log2 enrichment (interaction score)),[1],-5.03
same,binding signal (log2 enrichment (interaction score)),[2],-3.92
same,binding signal (log2 enrichment (interaction score)),[3],-0.76
same,binding signal (log2 enrichment (interaction score)),[4],-1.42
same,binding signal (log2 enrichment (interaction score)),[5],0.01
same,binding signal (log2 enrichment (interaction score)),[6],-1.37
same,binding signal (log2 enrichment (interaction score)),[7],-0.73
same,binding signal (log2 enrichment (interaction score)),[8],-0.53
same,binding signal (log2 enrichment (interaction score)),[9],-4.6
same,binding signal (log2 enrichment (interaction score)),[10],-2.61
same,binding signal (log2 enrichment (interaction score)),[11],-2.87
same,binding signal (log2 enrichment (interaction score)),[12],-0.16
same,binding signal (log2 enrichment (interaction score)),[13],-4.48
same,binding signal (log2 enrichment (interaction score)),[14],-4.1
same,binding signal (log2 enrichment (interaction score)),[15],-0.84
same,binding signal (log2 enrichment (interaction score)),[16],-3.04
same,binding signal (log2 enrichment (interaction score)),[17],-0.49
same,binding signal (log2 enrichment (interaction score)),[18],-1.26
same,binding signal (log2 enrichment (interaction score)),[19],-1.57
same,binding signal (log2 enrichment (interaction score)),[20],-0.25
same,binding signal (log2 enrichment (interaction score)),[21],< -8.18
same,binding signal (log2 enrichment (interaction score)),[22],-3.92
same,binding signal (log2 enrichment (interaction score)),[23],-0.62
same,binding signal (log2 enrichment (interaction score)),[24],-0.88
same,binding signal (log2 enrichment (interaction score)),[25],-2.21
same,binding signal (log2 enrichment (interaction score)),[26],< -9.9
same,binding signal (log2 enrichment (interaction score)),[27],-1.17
same,binding signal (log2 enrichment (interaction score)),[28],-0.65
same,binding signal (log2 enrichment (interaction score)),[29],-1.72
same,binding signal (log2 enrichment (interaction score)),[30],-2
same,binding signal (log2 enrichment (interaction score)),[31],-2.33
same,binding signal (log2 enrichment (interaction score)),[32],-4.64
same,binding signal (log2 enrichment (interaction score)),[33],-2.7
same,binding signal (log2 enrichment (interaction score)),[34],0
same,binding signal (log2 enrichment (interaction score)),[35],< -8.29
same,binding signal (log2 enrichment (interaction score)),[36],< -5.69
same,binding signal (log2 enrichment (interaction score)),[37],-1.76
same,binding signal (log2 enrichment (interaction score)),[38],-2.94
same,binding signal (log2 enrichment (interaction score)),[39],-0.99
same,binding signal (log2 enrichment (interaction score)),[40],-0.1
same,binding signal (log2 enrichment (interaction score)),[41],0.17
same,binding signal (log2 enrichment (interaction score)),[42],0.42
same,binding signal (log2 enrichment (interaction score)),[43],-3.84

# Reformatted: results already given
sequence | measurement | setting | value
GGCUAGAACUAGUGGAUCCCCCGGCGCCCGGCGGCUCGAGCCCGGGUAAGUGUGAAUAGUCUGCAUGCCGCCGGGCGCCAUGCCUGCAGGUCGACUCUAGAAAACAUG | binding signal (log2 enrichment (interaction score)) | [18] | -1.26
same | binding signal (log2 enrichment (interaction score)) | [22] | -3.92
